Screening data

The results are deposited in PubChem (AID1159506; NCATS, 2015).

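Genome-wide siRNA knockdown in TC32 Ewing sarcoma cells, comparing luciferase light from an NR0B1-promoter reporter with a CMV-promoter reporter 48 hours after transfection.
Each siRNA was applied at 20 nM.
A z-score of the log NR0B1-over-CMV signal, less the median of siRNAs with the same seed; more negative means a stronger specific loss of the NR0B1 reporter.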

The strongest results of the screen are mostly left out here.
Sequences are the guide (antisense) strand, without overhang.

Sequence | target gene | seed-corrected z-score
UGCGUUAUUUGAUCCACUG | ADAMTS20 | -0.06555
AAAGGUUCCCGGAUGAUGC | SELP | -0.6482
UCCCAAUCCAUAAACGGUG | HOMER1 | -0.4889
UACAUCUCCACAGAUCCAG | FBXL4 | -0.6523
UAACUAUCCUGCUCACAGG | BHLHB9 | -0.4976
AGUUUGAUCAGGCCCGUAG | GATS | -0.02482
UAGGGUGAAGCCGAACAGC | WFDC2 | 0.2897
UUAUUUCCAAUGCUUGUGC | MAP4 | -1.076
UUCCGUAUAAGGCUUCCAC | EBF3 | 0.6148
UGUCGUAACAUCGCAUCUC | COBL | 0.1361
UUCAUGUUAGGUGAGUUUC | LINC00977 | -0.801
UAUAUUGUCGGUAAAGAGA | DIABLO | 0.09623
UAAGCGAUUUUCUUUUACC | CCDC191 | 0.3302
UAGGACUCCAGAUAGCACG | SERPINB3 | 0.6782
UCCUUUGCUAAUAUCGAUG | ACE2 | -0.4722
UUUCUUCACUUGUCAAGCC | NKAP | -0.3268
UUCGAUGAGAGAUUUUUCC | NAGA | -0.6677
UUCGUAGCAAUGGGUAACG | RNF145 | -1.227
AUUGGGUUUUGUAUGAAUG | NLGN4Y | 0.1258
AAGCGGAUGAGGAUCUUUC | PHACTR1 | -0.4185
AAAUGAUAAACCACAAGCC | MS4A8 | -0.4277
UCAGUAAUCUGGAACCAGC | CHEK2P2 | 0.9228
UAGGGUUUCACAGGCCUGU | PEX5 | -0.5395
UUCUGUUGUAGCUGGGUAC | WHSC1L1 | 1.252
UCAAAUUUCCGAAAAUGUC | KRTAP8-1 | 1.118
UGCAUACUCAAUGAUUAGC | KLHL10 | 0.02323
UGUCGUUGAAAGACUUUGG | SCGB1D4 | -1.285
UAAAGUCAGAAAAUGCUUC | CCRL2 | 0.1652
UUCCGGAAGACAAUCGAGG | UBA7 | 0.1819
UUUCAGGCAGGCAUAUUCC | NR0B2 | 0.9663
UUCGUUUUGGUCGUUUUCC | BBX | 1.195
UCUAAGUUUGGGUAUCUCC | TMF1 | 0.02073
AAACCAUCAAGCUCGAAGG | CYP26B1 | -0.2768
AAAGCAGUAACUAAUUCAG | SLC24A5 | 0.1563
UUACACCUAAUUUAAUACC | TTC14 | 0.01933
UAGCCGUUCCAUGUACUGC | MTX1 | 0.07343
UUAAUUGCUAUUGGAGUAG | SKA3 | -1.34
UUUAGUUAUGCUUAGAGUG | ABL1 | -0.4568